No constants are given. Whether binding was seen depends on the method and setting. Some results given as binding are weak or reduced against the parent protein; the word gives no strength.
Target: recombinant ICAM-1 on the surface of transfected CHO cells (UniProt P05362)
Assay: 125I-KYG-γ3 (10-150 µg/ml) on monolayers of ICAM-1 CHO transfectants, 22 C, 45 min

By UniProt entry, the sequences of proteins in these tests, tags left out. Residues count along the entry.
UniProt P05362, residues 28-532: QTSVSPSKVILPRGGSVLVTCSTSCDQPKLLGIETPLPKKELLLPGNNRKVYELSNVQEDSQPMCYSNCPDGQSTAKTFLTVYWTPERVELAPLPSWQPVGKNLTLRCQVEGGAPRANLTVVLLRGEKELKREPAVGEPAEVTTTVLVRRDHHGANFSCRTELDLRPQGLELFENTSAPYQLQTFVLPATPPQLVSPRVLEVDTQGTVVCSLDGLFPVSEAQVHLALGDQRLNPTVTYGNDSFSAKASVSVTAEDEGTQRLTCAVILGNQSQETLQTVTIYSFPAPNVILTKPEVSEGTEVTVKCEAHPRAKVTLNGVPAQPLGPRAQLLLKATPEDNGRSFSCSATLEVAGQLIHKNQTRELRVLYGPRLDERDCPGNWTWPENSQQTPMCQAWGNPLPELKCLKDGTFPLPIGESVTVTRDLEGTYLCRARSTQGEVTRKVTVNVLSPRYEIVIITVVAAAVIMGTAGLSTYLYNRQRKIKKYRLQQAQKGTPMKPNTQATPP

binding: binds
Binder: KYGNNQKIVNLKEKVAQLEA (125I on the added tyrosine (IODO-GEN iodination)) [variant polypeptide γ3 with Lys-Tyr-Gly at the amino terminus (KYG-γ3), 125I-labelled]

From patent publication US20020131970A1 (Scripps Research, published 2002)
